Earlier results, collected in patent US20040115236A1, “Devices and methods for management of inflammation” (priority 2000, published 2004).

Conditions: inhaled administration of 20 mg doses via Spinhaler; cited from earlier work

Compound: O=C(O)c1cc(=O)c2c(OCC(O)COc3cccc4oc(C(=O)O)cc(=O)c34)cccc2o1 [sodium cromoglycate, Sodium cromoglycate]
- peak plasma concentrations: 35 to 90 ng/mL
